Assay results published in article PMC9412414, “A Study on Repositioning Nalidixic Acid via Lanthanide Complexation: Synthesis, Characterization, Cytotoxicity and DNA/Protein Binding Studies” (Pharmaceuticals, 2022).

Test system: EB–DNA system (CT-DNA)
Assay: Competitive binding assay with ethidium bromide (EB) through fluorescence spectroscopy
Design: species or system calf
Conditions: EB 2 µM, CT-DNA 10 µM, compound 0–40 µM

Compound | EB Displacement Assay n (Hill coefficient)
CCn1cc(C(=O)[O-])c(=O)c2ccc(C)nc21.CCn1cc(C(=O)[O-])c(=O)c2ccc(C)nc21.O.O.O.O.[Eu+3].[OH-] [Eu(nal)2, Eu(C12H11N2O3)2(OH)(H2O)·3H2O] | 2.81 ± 0.38
CCn1cc(C(=O)[O-])c(=O)c2ccc(C)nc21.CCn1cc(C(=O)[O-])c(=O)c2ccc(C)nc21.O.O.O.O.[Gd+3].[OH-] [Gd(nal)2, Gd(C12H11N2O3)2(OH)(H2O)·3H2O] | 2.33 ± 0.72
CCn1cc(C(=O)[O-])c(=O)c2ccc(C)nc21.CCn1cc(C(=O)[O-])c(=O)c2ccc(C)nc21.O.O.O.[La+3].[OH-] [La(nal)2, La(C12H11N2O3)2(OH)(H2O)·2H2O] | 2.20 ± 0.81
CCn1cc(C(=O)[O-])c(=O)c2ccc(C)nc21.CCn1cc(C(=O)[O-])c(=O)c2ccc(C)nc21.CCn1cc(C(=O)[O-])c(=O)c2ccc(C)nc21.O.O.O.O.O.O.O.O.[La+3] [La(nal)3, La(C12H11N2O3)3(H2O)2·6H2O] | 2.17 ± 0.99
CCn1cc(C(=O)O)c(=O)c2ccc(C)nc21 [Nalidixic acid] | 2.18 ± 0.30
CCn1cc(C(=O)[O-])c(=O)c2ccc(C)nc21.CCn1cc(C(=O)[O-])c(=O)c2ccc(C)nc21.O.O.O.O.[OH-].[Sm+3] [Sm(nal)2, Sm(C12H11N2O3)2(OH)(H2O)·3H2O] | 2.96 ± 0.77
CCn1cc(C(=O)[O-])c(=O)c2ccc(C)nc21.CCn1cc(C(=O)[O-])c(=O)c2ccc(C)nc21.O.[OH-].[Tb+3] [Tb(nal)2, Tb(C12H11N2O3)2(OH)(H2O)·1.5H2O] | 2.50 ± 0.96
Eu(C12H11N2O3)3(H2O)2·2.5H2O [Eu(nal)3] | 1.98 ± 0.95
Gd(C12H11N2O3)3(H2O)2·1.5H2O [Gd(nal)3] | 3.33 ± 1.43
Tb(C12H11N2O3)3(H2O)2·1.5H2O [Tb(nal)3] | 2.60 ± 1.21
